Data on two compounds can be found in patent publication US6592910B1, “Methods of treating clinical diseases with isoflavones” (Board of Trustees, Southern Illinois University, priority 1999, dated 2003).

The subject of the data set is male Sprague-Dawley rats. Description: Feed and weight measurements in male Sprague-Dawley rats injected for 6 weeks. Type of data set: in vivo, rat. The conditions noted are these: for FER compared to V / Feed intake compared to V treated animals: P<0.05; for FER / Feed Intake: daily s.c. injection, 6 weeks; for FER: 0.1 μg/g body weight. Here is the method: Forty male Sprague-Dawley rats (5 wk old, n=9-10 rats/treatment, from Harlan Sprague-Dawley, Inc., Indianapolis, Ind.) were injected with either genistein (G), daidzein (D), estradiol (E), or a vehicle control (V). Each animal in group V received a daily 0.1 cc subcutaneous injection, for six weeks, of a 10% ethanol-90% olive oil solution; the other treatments received their respective compound as a daily 0.1 cc subcutaneous injection, for six weeks, e.g., 0.1 μg of compound/g of body weight, in a 10% ethanol-90% olive oil solution.
Animal weight and feed intake were measured weekly during the six week study, and the subsequent feed-efficiency ratio [FER (g of weight change/g of feed intake)] was determined. Following sacrifice, the abdominal fat pads, liver, and reproductive organs were removed and weighed for comparison.
These studies used a randomized design. All data were analyzed by one-way analysis of variance (ANOVA) and post-hoc comparisons were made with Tukey pairwise comparisons test. Significance was confirmed at P≦0.05 (SYSTAT 7.0, SPSS INC., 1997), and all values are reported as means±standard error of the mean.

Marks after values point to notes of the source that are not given here.

For `O=c1c(-c2ccc(O)cc2)coc2cc(O)ccc12` [D, daidzein], the “FER compared to V” value is on record as “lower (P<0.05)”, the “Feed intake compared to V treated animals” value is given as “significantly (P<0.05) higher”, the FER entry is “.284 g of weight change/g of food intake” and the “Feed Intake” value was 857.44^a g.
The like results for `O=c1c(-c2ccc(O)cc2)coc2cc(O)cc(O)c12` [G, genistein] were, in that order, “lower (P<0.05)”, “significantly (P<0.05) higher”, “.277 g of weight change/g of food intake” and 855.80^a g.
